Experimental data taken from patent EP0291696A2, “Process of multiplication of epithelial cells” (Battelle-Institut e.V., priority 1987, dated 1988).
For at least one compound, name, drawing or mass did not settle the structure.

What was measured:
Keratinozyten [1] = test: Keratinocyte culture with FCS or Nu-Serum: cell count after 12 days and days to confluence (Beispiel 3); type: cell-based, human; conditions: Forskolin ca. 5 x 10⁻⁶ bis 10⁻⁵M; independent of the serum (FCS or Nu-Serum)
Text: Kerationozyten wurden durch Trypsinierung von Haut nach der Methode von M. Green (Green, M. et al, PNAS 76 (1979) 5665) gewonnen und in einer Zelldichte von 2,5 x 10 ⁴ Zellen/cm² ausgesät. Die Hautproben in den Beispielen 1, 2 und 3 stammten von Patienten die zwischen 30 und 40 Jahre alt waren. Zusätzlich wurden die Kulturen mit 2 x 10 ⁴ Zellen/cm² letal bestrahlter 3T3-Fibroblasten inokuliert, beschrieben im US-Patent 4,016,036.
Als Medium diente eine Mischung aus DMEM und HAM's F 12 (3:1) mit folgenden Zusätzen: Hydrocortison 0,4 ug/ml Insulin 5 ug/ml Triiodo-Thyronin 2x10⁻⁹M Transferrin 5 ug/ml Adenin 8 x 10⁻⁴ M Gentamycin, Penicillin, Streptomycin je 50 ug/ml Fötales Kälberserum 10 % EGF (nach 2 Tagen) 10 ng/ml
In diesem Experiment, das wie unter Beispiel 1 beschrieben durchgeführt wurde, wurden verschiedene Forskolinkonzentrationen unter Verwendung bzw. in Vergleich von 10 % fötalem Kälberserum (FCS) und einem synthetischen Serum der Firma Biomedica Wien (Nu-Serum Nr. 1) untersucht.

Keratinozyten [2] = test: Keratinocyte culture: cell count after 12 days and days to confluence (Beispiel 2); type: cell-based, human; conditions: 10^-8M
humaner Epithelialzellen = test: Growth of cultivated human epithelial cells, dose dependence (summary); type: cell-based; conditions: Forskolin 10⁻⁵M bzw. 5 x 10⁻⁶M

SMILES: C=C[C@@]1(C)CC(=O)[C@]2(O)[C@@]3(C)[C@@H](O)CCC(C)(C)[C@@H]3[C@H](O)[C@H](OC(C)=O)[C@@]2(C)O1 [Forskolin]
- Wachstum der Keratinozyten (Keratinozyten [1]): erheblich
- Anzahl der Tage bis zur Konfluenz (Keratinozyten [2]): keine Kon-fluenz
- Zellwachstum (humaner Epithelialzellen): das beste Waschstum
